Experimental findings from article doi:10.1101/2025.04.21.649502 are described below.

No constants are given. Whether binding was seen depends on the method and setting. Binding seen in cells or lysates may run through a third protein. Sequences can lack the tags named with a protein.

In this assay the target is T1, Flag/HA-ZC3H7B (Zinc Finger CCCH-Type Containing 7B) (human) (UniProt Q9UGR2).
T1 sequence: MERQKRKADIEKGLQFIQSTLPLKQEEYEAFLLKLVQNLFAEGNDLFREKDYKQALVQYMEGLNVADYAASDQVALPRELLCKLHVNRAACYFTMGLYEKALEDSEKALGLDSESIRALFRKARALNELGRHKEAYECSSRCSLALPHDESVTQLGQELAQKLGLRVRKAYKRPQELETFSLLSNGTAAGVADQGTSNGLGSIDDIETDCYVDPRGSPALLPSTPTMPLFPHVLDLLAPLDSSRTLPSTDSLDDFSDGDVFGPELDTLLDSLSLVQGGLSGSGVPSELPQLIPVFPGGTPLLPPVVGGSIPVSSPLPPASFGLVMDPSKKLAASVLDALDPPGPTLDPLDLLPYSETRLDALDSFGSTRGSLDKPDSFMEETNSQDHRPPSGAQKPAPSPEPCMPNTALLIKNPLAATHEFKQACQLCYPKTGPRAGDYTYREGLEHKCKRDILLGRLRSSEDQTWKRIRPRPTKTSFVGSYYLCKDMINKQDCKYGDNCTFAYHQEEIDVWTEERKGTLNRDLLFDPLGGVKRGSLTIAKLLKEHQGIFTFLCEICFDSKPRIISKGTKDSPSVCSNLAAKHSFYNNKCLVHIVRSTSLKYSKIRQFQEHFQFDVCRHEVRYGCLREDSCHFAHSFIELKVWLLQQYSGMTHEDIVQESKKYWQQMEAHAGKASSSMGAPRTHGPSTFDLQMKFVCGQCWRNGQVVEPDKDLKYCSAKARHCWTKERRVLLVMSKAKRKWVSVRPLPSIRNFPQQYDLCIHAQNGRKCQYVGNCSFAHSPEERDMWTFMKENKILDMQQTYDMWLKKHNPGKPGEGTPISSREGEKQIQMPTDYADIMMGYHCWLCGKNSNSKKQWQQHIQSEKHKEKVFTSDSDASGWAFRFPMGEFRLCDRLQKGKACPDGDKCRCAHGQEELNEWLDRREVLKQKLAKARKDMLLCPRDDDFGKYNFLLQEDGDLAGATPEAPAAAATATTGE
Description: co-IP.

Turning to eEF1A (human (endogenous in HEK293)), the binding result is “no binding”.
